Measured values taken from the supplement of paper PMC4604168 (melanoma cell lines).
The list shows a part of the results. Single values are uncertain, as repeats are few or missing.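 Cells were imaged in 1,536-well plates, and nuclei stained with an antibody against cleaved PARP were counted against all DNA-stained nuclei to give the apoptosis fraction. Screening doses were chosen to leave most cells alive, and resting and induced cleaved-PARP levels differ strongly between cell lines.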

Columns and labels:
Experiment in all cases: cleaved PARP positive nuclei fraction relative to DMSO control; melanoma cells; higher = more apoptosis
Conditions in all cases: library dose: low library concentration; 72 h
MZ2-MEL = tested on: MZ2-MEL
MeWo = tested on: MeWo
RPMI7951 = tested on: RPMI7951
RVH-421 = tested on: RVH-421
SkMel28 = tested on: SkMel28
SkMel2 = tested on: SkMel2
SkMel30 = tested on: SkMel30
SkMel5 = tested on: SkMel5
UACC257 = tested on: UACC257
UACC62 = tested on: UACC62
WM115 = tested on: WM115
WM1716 = tested on: WM1716
WM1745 = tested on: WM1745
WM3526 = tested on: WM3526
WM3619 = tested on: WM3619
WM451Lu = tested on: WM451Lu

Question: What does the source list for `Nc1nc(F)nc2c1ncn2[C@@H]1O[C@H](CO)[C@@H](O)[C@@H]1O` [fludarabine] + Cc1cc([N+](=O)[O-])ccc1NS(=O)(=O)c1cc(Cl)ccc1Cl [FH535] (first compound 0.2 µM, partner dose 1 µM)?
Answer: cleaved PARP positive nuclei fraction (MZ2-MEL): 44.5%; cleaved PARP positive nuclei fraction (MeWo): 746%; cleaved PARP positive nuclei fraction (RPMI7951): 71.7%; cleaved PARP positive nuclei fraction (RVH-421): 169%; cleaved PARP positive nuclei fraction (SkMel28): 191%; cleaved PARP positive nuclei fraction (SkMel2): 343%; cleaved PARP positive nuclei fraction (SkMel30): 1890%; cleaved PARP positive nuclei fraction (SkMel5): 219%; cleaved PARP positive nuclei fraction (UACC257): 104%; cleaved PARP positive nuclei fraction (UACC62): 102%; cleaved PARP positive nuclei fraction (WM115): 28.3%; cleaved PARP positive nuclei fraction (WM1716): 54.5%; cleaved PARP positive nuclei fraction (WM1745): 97.7%; cleaved PARP positive nuclei fraction (WM3526): 388%; cleaved PARP positive nuclei fraction (WM3619): 104%; cleaved PARP positive nuclei fraction (WM451Lu): 127%

Question: Which results are given for `CCCS(=O)(=O)Nc1ccc(F)c(C(=O)c2c[nH]c3ncc(Cl)cc23)c1F` + C=CCn1c(=O)c2cnc(Nc3ccc(N4CCN(C)CC4)cc3)nc2n1-c1cccc(C(C)(C)O)n1 [MK1775] (first compound 0.08 µM, partner dose 0.02 µM)?
Answer: cleaved PARP positive nuclei fraction (MZ2-MEL): 45.2%; cleaved PARP positive nuclei fraction (MeWo): 75.5%; cleaved PARP positive nuclei fraction (RPMI7951): 83.9%; cleaved PARP positive nuclei fraction (RVH-421): 99.7%; cleaved PARP positive nuclei fraction (SkMel28): 119%; cleaved PARP positive nuclei fraction (SkMel2): 68.9%; cleaved PARP positive nuclei fraction (SkMel30): 70.5%; cleaved PARP positive nuclei fraction (SkMel5): 141%; cleaved PARP positive nuclei fraction (UACC257): 193%; cleaved PARP positive nuclei fraction (UACC62): 295%; cleaved PARP positive nuclei fraction (WM115): 127%; cleaved PARP positive nuclei fraction (WM1716): 75.6%; cleaved PARP positive nuclei fraction (WM1745): 112%; cleaved PARP positive nuclei fraction (WM3526): 94.6%; cleaved PARP positive nuclei fraction (WM3619): 97.5%; cleaved PARP positive nuclei fraction (WM451Lu): 63.7%

Question: What does the source list for `CCCS(=O)(=O)Nc1ccc(F)c(C(=O)c2c[nH]c3ncc(Cl)cc23)c1F` + CO[C@@H]1[C@H](N(C)C(=O)c2ccccc2)C[C@H]2O[C@]1(C)n1c3ccccc3c3c4c(c5c6ccccc6n2c5c31)C(=O)NC4 [Midostaurin] (first compound 0.08 µM, partner dose 0.08 µM)?
Answer: cleaved PARP positive nuclei fraction (MZ2-MEL): 116%; cleaved PARP positive nuclei fraction (MeWo): 114%; cleaved PARP positive nuclei fraction (RPMI7951): 47.1%; cleaved PARP positive nuclei fraction (RVH-421): 123%; cleaved PARP positive nuclei fraction (SkMel28): 75.7%; cleaved PARP positive nuclei fraction (SkMel2): 60.9%; cleaved PARP positive nuclei fraction (SkMel30): 55.1%; cleaved PARP positive nuclei fraction (SkMel5): 92.6%; cleaved PARP positive nuclei fraction (UACC257): 68.8%; cleaved PARP positive nuclei fraction (UACC62): 113%; cleaved PARP positive nuclei fraction (WM115): 54.2%; cleaved PARP positive nuclei fraction (WM1716): 51.8%; cleaved PARP positive nuclei fraction (WM1745): 99.9%; cleaved PARP positive nuclei fraction (WM3526): 92.5%; cleaved PARP positive nuclei fraction (WM3619): 139%; cleaved PARP positive nuclei fraction (WM451Lu): 244%

Question: `Nc1ccn([C@@H]2O[C@H](CO)[C@@H](O)C2(F)F)c(=O)n1` [gemcitabine] + COc1cc2ncnc(Nc3ccc(Oc4ccccc4)cc3)c2cc1OC [SrcI1] (first compound 0.0004 µM, partner dose 2 µM) was tested. Which “cleaved PARP positive nuclei fraction” value (MZ2-MEL) did it give?
Answer: 145%

Question: And the “cleaved PARP positive nuclei fraction” value (MeWo)?
Answer: 172%

Question: And the “cleaved PARP positive nuclei fraction” value (RPMI7951)?
Answer: 53.3%

Question: What about the “cleaved PARP positive nuclei fraction” value (RVH-421) of the same compound?
Answer: 97.5%

Question: What about the “cleaved PARP positive nuclei fraction” value (SkMel28) of the same compound?
Answer: 162%

Question: And the “cleaved PARP positive nuclei fraction” value (SkMel2)?
Answer: 112%

Question: What about the “cleaved PARP positive nuclei fraction” value (SkMel30) of the same compound?
Answer: 437%

Question: And the “cleaved PARP positive nuclei fraction” value (SkMel5)?
Answer: 69.6%

Question: What about the “cleaved PARP positive nuclei fraction” value (UACC257) of the same compound?
Answer: 71%

Question: And the “cleaved PARP positive nuclei fraction” value (UACC62)?
Answer: 119%

Question: What about the “cleaved PARP positive nuclei fraction” value (WM115) of the same compound?
Answer: 54.7%

Question: And the “cleaved PARP positive nuclei fraction” value (WM1716)?
Answer: 70.3%

Question: And the “cleaved PARP positive nuclei fraction” value (WM1745)?
Answer: 122%

Question: What about the “cleaved PARP positive nuclei fraction” value (WM3526) of the same compound?
Answer: 102%

Question: What about the “cleaved PARP positive nuclei fraction” value (WM3619) of the same compound?
Answer: 117%

Question: What about the “cleaved PARP positive nuclei fraction” value (WM451Lu) of the same compound?
Answer: 150%

Question: How did the “cleaved PARP positive nuclei fraction” value (MZ2-MEL) turn out when `Cn1c(=O)n(-c2ccc(C(C)(C)C#N)cc2)c2c3cc(-c4cnc5ccccc5c4)ccc3ncc21` + O=C1NC(=O)/C(=C/c2ccc(-c3ccc(F)cc3O)o2)S1 [AS252424] (first compound 0.004 µM, partner dose 1 µM) was run?
Answer: 44.4%

Question: And the “cleaved PARP positive nuclei fraction” value (MeWo)?
Answer: 97.2%

Question: And the “cleaved PARP positive nuclei fraction” value (RPMI7951)?
Answer: 120%

Question: What about the “cleaved PARP positive nuclei fraction” value (RVH-421) of the same compound?
Answer: 158%

Question: And the “cleaved PARP positive nuclei fraction” value (SkMel28)?
Answer: 210%

Question: And the “cleaved PARP positive nuclei fraction” value (SkMel2)?
Answer: 36.6%

Question: And the “cleaved PARP positive nuclei fraction” value (SkMel30)?
Answer: 54.7%

Question: And the “cleaved PARP positive nuclei fraction” value (SkMel5)?
Answer: 77.8%

Question: And the “cleaved PARP positive nuclei fraction” value (UACC257)?
Answer: 226%

Question: What about the “cleaved PARP positive nuclei fraction” value (UACC62) of the same compound?
Answer: 126%

Question: And the “cleaved PARP positive nuclei fraction” value (WM115)?
Answer: 121%

Question: And the “cleaved PARP positive nuclei fraction” value (WM1716)?
Answer: 93%

Question: And the “cleaved PARP positive nuclei fraction” value (WM1745)?
Answer: 79.5%

Question: What about the “cleaved PARP positive nuclei fraction” value (WM3526) of the same compound?
Answer: 53%

Question: What about the “cleaved PARP positive nuclei fraction” value (WM3619) of the same compound?
Answer: 94.9%

Question: What about the “cleaved PARP positive nuclei fraction” value (WM451Lu) of the same compound?
Answer: 141%

Question: How did the “cleaved PARP positive nuclei fraction” value (MZ2-MEL) turn out when `CC(C)C[C@H](NC(=O)[C@H](Cc1ccccc1)NC(=O)c1cnccn1)B(O)O` [Bortezomib] + N#Cc1c(O)c2c(-c3ccc(-c4ccccc4O)cc3)csc2[nH]c1=O [A769662] (first compound 0.001 µM, partner dose 2 µM) was run?
Answer: 119%

Question: What about the “cleaved PARP positive nuclei fraction” value (MeWo) of the same compound?
Answer: 67.6%

Question: And the “cleaved PARP positive nuclei fraction” value (RPMI7951)?
Answer: 43.7%

Question: What about the “cleaved PARP positive nuclei fraction” value (RVH-421) of the same compound?
Answer: 769%

Question: And the “cleaved PARP positive nuclei fraction” value (SkMel28)?
Answer: 213%

Question: What about the “cleaved PARP positive nuclei fraction” value (SkMel2) of the same compound?
Answer: 123%

Question: What about the “cleaved PARP positive nuclei fraction” value (SkMel30) of the same compound?
Answer: 45.7%

Question: What about the “cleaved PARP positive nuclei fraction” value (SkMel5) of the same compound?
Answer: 309%

Question: What about the “cleaved PARP positive nuclei fraction” value (UACC257) of the same compound?
Answer: 118%

Question: What about the “cleaved PARP positive nuclei fraction” value (UACC62) of the same compound?
Answer: 108%

Question: What about the “cleaved PARP positive nuclei fraction” value (WM115) of the same compound?
Answer: 51.2%

Question: What about the “cleaved PARP positive nuclei fraction” value (WM1716) of the same compound?
Answer: 659%

Question: And the “cleaved PARP positive nuclei fraction” value (WM1745)?
Answer: 154%

Question: And the “cleaved PARP positive nuclei fraction” value (WM3526)?
Answer: 83.7%

Question: And the “cleaved PARP positive nuclei fraction” value (WM3619)?
Answer: 307%

Question: What about the “cleaved PARP positive nuclei fraction” value (WM451Lu) of the same compound?
Answer: 110%

Question: Which results are given for `CS(=O)(=O)CCNCc1ccc(-c2ccc3ncnc(Nc4ccc(OCc5cccc(F)c5)c(Cl)c4)c3c2)o1` [lapatinib] + COc1ccc(-c2ccc3c(N4CCOCC4)nc(N4C[C@@H](C)O[C@@H](C)C4)nc3n2)cc1CO [KU0063794] (first compound 0.8 µM, partner dose 0.02 µM)?
Answer: cleaved PARP positive nuclei fraction (MZ2-MEL): 108%; cleaved PARP positive nuclei fraction (MeWo): 61.9%; cleaved PARP positive nuclei fraction (RPMI7951): 185%; cleaved PARP positive nuclei fraction (RVH-421): 108%; cleaved PARP positive nuclei fraction (SkMel28): 56%; cleaved PARP positive nuclei fraction (SkMel2): 118%; cleaved PARP positive nuclei fraction (SkMel30): 257%; cleaved PARP positive nuclei fraction (SkMel5): 131%; cleaved PARP positive nuclei fraction (UACC257): 50.4%; cleaved PARP positive nuclei fraction (UACC62): 50.6%; cleaved PARP positive nuclei fraction (WM115): 90.8%; cleaved PARP positive nuclei fraction (WM1716): 45.1%; cleaved PARP positive nuclei fraction (WM1745): 79.2%; cleaved PARP positive nuclei fraction (WM3526): 91.5%; cleaved PARP positive nuclei fraction (WM3619): 115%; cleaved PARP positive nuclei fraction (WM451Lu): 130%

Question: Which results are given for `Nc1nc(F)nc2c1ncn2[C@@H]1O[C@H](CO)[C@@H](O)[C@@H]1O` [fludarabine] + COc1ccc(-c2ccc3c(N4CCOCC4)nc(N4C[C@@H](C)O[C@@H](C)C4)nc3n2)cc1CO [KU0063794] (first compound 0.2 µM, partner dose 0.02 µM)?
Answer: cleaved PARP positive nuclei fraction (MZ2-MEL): 17.3%; cleaved PARP positive nuclei fraction (MeWo): 578%; cleaved PARP positive nuclei fraction (RPMI7951): 39.8%; cleaved PARP positive nuclei fraction (RVH-421): 155%; cleaved PARP positive nuclei fraction (SkMel28): 246%; cleaved PARP positive nuclei fraction (SkMel2): 1090%; cleaved PARP positive nuclei fraction (SkMel30): 1740%; cleaved PARP positive nuclei fraction (SkMel5): 134%; cleaved PARP positive nuclei fraction (UACC257): 173%; cleaved PARP positive nuclei fraction (UACC62): 112%; cleaved PARP positive nuclei fraction (WM115): 155%; cleaved PARP positive nuclei fraction (WM1716): 205%; cleaved PARP positive nuclei fraction (WM1745): 94.6%; cleaved PARP positive nuclei fraction (WM3526): 1640%; cleaved PARP positive nuclei fraction (WM3619): 89.6%; cleaved PARP positive nuclei fraction (WM451Lu): 761%
